These are yes or no findings as the source states them, for the method shown.
Legend:
[1] = target: NusA^ΔAR2 (NusA residues 1–426) (E. coli) (UniProt P0AFF6); assay: condition: 20 μM largest component, 25 μM smaller components; SEC; analytical SEC of mixtures of proteins only; Superdex 200 Increase 3.2/300; 20 μM largest component, 25 μM all smaller components; 20 mM HEPES–NaOH pH 7.5, 50 mM NaCl, 1 mM DTT; incubated at room temperature for 15 min; fractions on SDS-PAGE; both purified
NusG (E. coli) = NusG (E. coli) (UniProt P0AFG0); assay: as above

Sequences of proteins named here, by UniProt entry; tags and fusion partners are left off.
UniProt P0AFG0: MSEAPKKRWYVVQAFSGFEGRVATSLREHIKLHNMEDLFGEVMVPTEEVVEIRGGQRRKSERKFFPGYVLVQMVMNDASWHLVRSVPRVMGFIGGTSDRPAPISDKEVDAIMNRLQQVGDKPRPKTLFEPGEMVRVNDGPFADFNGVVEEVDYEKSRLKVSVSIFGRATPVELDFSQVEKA
UniProt P0ADG4: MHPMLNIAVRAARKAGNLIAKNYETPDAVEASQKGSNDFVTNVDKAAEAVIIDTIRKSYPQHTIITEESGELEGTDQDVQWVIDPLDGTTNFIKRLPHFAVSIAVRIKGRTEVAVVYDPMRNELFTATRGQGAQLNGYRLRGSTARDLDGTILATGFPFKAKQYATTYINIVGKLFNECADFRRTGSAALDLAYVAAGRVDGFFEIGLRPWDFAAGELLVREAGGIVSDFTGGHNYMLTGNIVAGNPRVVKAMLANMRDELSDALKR

“SuhB (inositol mono-phosphatase SuhB), wild type (from UniProt P0ADG4 1-267)” was tested, and the binding [1] was “no binding” and the binding (NusG (E. coli)) was “no binding”.

— article PMC6614801
